The record followed here is US20120231005A1 (Merck Sharp & Dohme, published 2012).

These are yes or no findings as the source states them, for the method shown. A result given as binding can be weak or reduced; the word gives no strength.

In experiment [1] the target is rhesus PCSK9 (rhesus). Put plainly: told with the LDL-uptake (Exopolar) assay.
For experiment [2], the target named is rhesus PCSK9 (rhesus). The experiment is described as follows: affinity measurement, IgG2.

B1: AX9 IgG2 (antibody)
heavy: EVQLLESGGGLVQPGGSLRLSCKASGYTFSSYWMHWVRQAPGKGLEWIGRIDPYNGGTKYNEKFKGKATISRDNSKNTLYLQMNSLRAEDTAVYYCARYGYYLGSYAMDYWGQGTLVTVSSASTKGPSVFPLAPCSRSTSESTAALGCLVKDYFPEPVTVSWNSGALTSGVHTFPAVLQSSGLYSLSSVVTVPSSNFGTQTYTCNVDHKPSNTKVDKTVERKCCVECPPCPAPPVAGPSVFLFPPKPKDTLMISRTPEVTCVVVDVSHEDPEVQFNWYVDGVEVHNAKTKPREEQFNSTFRVVSVLTVVHQDWLNGKEYKCKVSNKGLPAPIEKTISKTKGQPREPQVYTLPPSREEMTKNQVSLTCLVKGFYPSDIAVEWESNGQPENNYKTTPPMLDSDGSFFLYSKLTVDKSRWQQGNVFSCSVMHEALHNHYTQKSLSLSPGK
light: DIQMTQSPSSLSASVGDRVTITCRASQDVSKYLAWYQQKPGKAPKLLIYAASSLQSGVPSRFSGSGSGTDFTLTISSLQPEDFATYYCQVYDSSPNAYVFGGGTKVEIKRTVAAPSVFIFPPSDEQLKSGTASVVCLLNNFYPREAKVQWKVDNALQSGNSQESVTEQDSKDSTYSLSSTLTLSKADYEKHKVYACEVTHQGLSSPVTKSFNRGEC
Turning to B1, the binding entry in experiment [1] is recorded as “binds”.

B2: AX1DG IgG2 (antibody, V domains shown)
VH: EVQLLESGGGLVQPGGSLRLSCKASGFTFTSYYMHWVRQAPGKGLEWIGRINPDSGSTKYNEKFKGRATISRDNSKNTLYLQMNSLRAEDTAVYYCARGGRLSWDFDVWGQGTLVTVSS
VL: DIQMTQSPSSLSASVGDRVTITCRASQDISRYLAWYQQKPGKAPKLLIYAASSLQSGVPSRFSGSGSGTDFTLTISSLQPEDFATYYCAAYDYSLGGYVFGGGTKVEIK
notes: IgG2; also called AXIDG
On to B2, for which the binding entry in experiment [2] was “binds”.
